The other results are listed elsewhere or left out. Shown are side measurements of this screen, not its main read-out; they come without a call. The list favours compounds with an active or inconclusive main result. Potencies come from curve fits of mixed quality, noted in brackets.
Test: qHTS Assay for Lipid Storage Modulators in Drosophila S3 Cells;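 as to cell number change: cells counted by Cell Tracker Red CMTPX staining in the red channel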
Conditions: BODIPY lipid droplet fluorescence, 18-24 h; for cell number change: measured here: cell count max response, cells fed with added oleic acid
Method in brief: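 Laser-scanning cytometry quantifies lipid droplet accumulation (500–530 nm total intensity; droplet/cell object ratio) in oleic acid-fed (400 uM added) Drosophila S3 cells treated with a concentration series. 20 uM Triacsin C defined 100% inhibition.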

[1] = measured here: lipid fluorescence (Fed channel) AC50, cells fed with added oleic acid
[2] = measured here: cell number channel AC50, cells fed with added oleic acid

| SMILES | cell number change [%] | AC50 [1] | AC50 [2] |
| --- | --- | --- | --- |
| O=C(NC1CCCc2c1cnn2-c1cc(F)cc(F)c1)c1ccncc1 (stereo not given) | -31.4 | 23.1 µM [falling, single point] | – |
| CCn1cnc2c(NCCc3cccnc3)nc(C#N)nc21 | -16.3 | 0.58 µM [rising, partial curve] | – |
| COc1ccc(C(CC(=O)O)N2Cc3ccccc3C2=O)cc1 (stereo not given) | 10.6 | 6.51 µM [falling, single point] | – |
| CCOc1ccccc1NC(=S)N1CCCCCC1 | 19.3 | 29.1 µM [rising, single point] | – |
| O=C(CSc1ccccn1)Nc1ccc2c(c1)CCC2 | 39.5 | – | 29.1 µM [rising, single point] |
| O=C(c1cccc(S(=O)(=O)Nc2ccccc2Cl)c1)N1CCN(c2ccccc2O)CC1 | -16.1 | 0.058 µM [falling, full curve, poor fit] | – |
| CN(C1CCCCC1)S(=O)(=O)c1cn(C)c(=O)n(C)c1=O | 0.389 | 0.092 µM [falling, full curve, poor fit] | – |
| CCOCCn1c(N2CCN(c3ccccc3)CC2)nc2c1c(=O)n(C)c(=O)n2C | 223 | 0.146 µM [rising, full curve, poor fit] | 1.03 µM [rising, partial curve] |
| COC(=O)c1cccc(NC(=O)COc2cccc([N+](=O)[O-])c2)c1 | 21.9 | 0.116 µM [rising, full curve, poor fit] | 0.231 µM [rising, full curve, poor fit] |
| O=S(=O)(Cc1ccccc1)N1CCN(Cc2ccc(Br)cc2)CC1 | 21.1 | – | – |
| NC(=O)c1nsc(C(=O)N(Cc2cccnc2)C(C(=O)NC2CCCCC2)c2ccc(F)cc2)c1N (stereo not given) | 5.65 | 29.1 µM [rising, single point] | – |
| Cc1nnc(NC(=O)CSc2nc(C(C)C)nc3ccccc23)s1 | – | 0.00411 µM [rising, full curve, poor fit] | – |
| O=C(c1ccc(-n2cncn2)c([N+](=O)[O-])c1)N1CCN(S(=O)(=O)c2ccc(F)c(F)c2)CC1 | – | – | 6.51 µM [rising, single point] |
| CCOCCOCCC(C(=O)O)P(=O)(c1ccccc1)c1ccccc1 (stereo not given) | 12.7 | 6.51 µM [falling, single point] | – |
| O=C(COC(=O)/C=C/c1ccccc1)Nc1nnc(-c2ccccc2)o1 | -5.12 | 6.51 µM [rising, partial curve, poor fit] | – |
| COc1cc(-c2nnc(NC(=O)CS(=O)(=O)c3ccc(C)cc3)o2)cc(OC)c1OC | -21.3 | 11.6 µM [falling, partial curve] | – |
| Cc1cccc2c(C(=O)N3CCN(C(=O)c4ccco4)CC3)cc(-c3cccc(Br)c3)nc12 | -14.8 | 29.1 µM [falling, single point] | – |
| Cc1cc(NC(=O)CSc2nc3c(C)ccc(C)c3cc2C#N)no1 | 8.97 | – | – |

Two consecutive records from above:

| SMILES | cell number change [%] | AC50 [1] | AC50 [2] |
| --- | --- | --- | --- |
| COC(=O)c1cccc(NC(=O)COc2cccc([N+](=O)[O-])c2)c1 | 21.9 | 0.116 µM [rising, full curve, poor fit] | 0.231 µM [rising, full curve, poor fit] |
| O=S(=O)(Cc1ccccc1)N1CCN(Cc2ccc(Br)cc2)CC1 | 21.1 | – | – |

Carrying on:

| SMILES | cell number change [%] | AC50 [1] | AC50 [2] |
| --- | --- | --- | --- |
| CCOC(=O)C(C)Oc1cccc2c(=O)n(CC(=O)NCCc3ccccc3)ccc12 (stereo not given) | 31.7 | 2.31 µM [rising, partial curve, poor fit] | 0.146 µM [rising, full curve, poor fit] |
| COc1ccc(NC(=O)COC(=O)c2cc(=O)c3ccccc3o2)cc1OC | -2.33 | – | – |
| NC(=S)Nc1ccc2cn[nH]c2c1 | -27.5 | 0.00517 µM [falling, full curve, poor fit] | 0.82 µM [rising, single point] |
| Cc1ccc2cc(CN(CCCN3CCOCC3)C(=O)NC3CCCCC3)c(=O)[nH]c2c1C | 8.97 | 23.1 µM [rising, single point] | 0.326 µM [rising, partial curve, poor fit] |
| N#Cc1cc2c(nc1SCc1cccnc1)CCCCC2 | 81.1 | 0.731 µM [rising, full curve] | 29.1 µM [rising, single point] |
| OC(CNCC(c1ccc(Cl)cc1Cl)c1c[nH]c2ccccc12)c1ccccc1 (stereo not given) | -56.9 | 32.6 µM [falling, partial curve, poor fit] | 20.6 µM [falling, single point] |
| CCc1cc(C(=O)O)c(NC(=O)C(c2ccccc2)c2ccccc2)s1 | -4.86 | 29.1 µM [falling, single point] | – |
| O=C(Nc1ccccc1C(F)(F)F)N1CCCC1c1cccnc1 (stereo not given) | -7.94 | 2.59 µM [falling, single point] | – |
| NS(=O)(=O)c1cccc(NC(=O)CSc2ccccn2)c1 | 53.1 | 1.64 µM [falling, partial curve] | – |
| Cc1ccc(S(=O)(=O)NCC(=O)Nc2cccc([N+](=O)[O-])c2)cc1 | 30.6 | 29.1 µM [rising, single point] | 3.66 µM [rising, full curve, poor fit] |
| CC(Sc1nnc(Nc2ccccc2F)s1)C(=O)NC1CC1 (stereo not given) | -2.72 | 3.26 µM [falling, full curve] | – |
| Cc1ccsc1C(=O)Nc1cccc(S(=O)(=O)N(C)C)c1 | 40.6 | – | 9.2 µM [rising, partial curve, poor fit] |
| O=C(C1=C[C@H](c2ccc(Br)cc2)C[C@H](OCCCCO)O1)N1CCN(Cc2ccc3c(c2)OCO3)CC1 | -26.1 | – | – |
| CCOc1ccc(S(=O)(=O)Nc2ccc(C(=O)NCC(c3ccco3)N(C)C)cc2)cc1 (stereo not given) | -16.3 | 2.31 µM [falling, partial curve] | – |
| Cc1ccc(NC(=O)CSc2n[nH]c(-c3ccncc3)n2)c(C)c1 | 17.4 | 6.51 µM [falling, single point] | – |
| CCCCn1c(N)c(N(CCOC)C(=O)COC(=O)Cc2cccc(OC)c2)c(=O)[nH]c1=O | -18.1 | – | – |
| COc1ccc(OCC(=O)NNc2c3ccccc3nc3ccccc23)cc1 | -98 | 1.64 µM [falling, full curve] | 10.3 µM [falling, partial curve] |
| O=C(Cc1cn2ccsc2n1)Nc1nc2c(s1)CN(Cc1ccccc1)CC2 | 9.39 | 6.51 µM [falling, single point] | 0.731 µM [rising, partial curve, poor fit] |

Source: PubChem BioAssay AID2685 (National Center for Advancing Translational Sciences (NCATS), 2010)
